From patent US8895695B2, “Template-fixed beta-hairpin peptidomimetics with CXCR4 antagonizing activity” (priority 2003, dated 2014)
At least one structure is not confirmed: it was looked up by name or label, or the drawing left a doubt. Bridge positions count the residues as written; N and C are the ends. Square brackets hold non-standard residues; d marks the D form. Peptide text beside a SMILES is read from it. Cit = NC(=O)NCCC[C@H](N)C(=O)O; Pip = O=C(O)[C@@H]1CCCCN1

Protein sequences, listed by entry. Tags and fused reporters are not part of them.
UniProt P61073, whole entry: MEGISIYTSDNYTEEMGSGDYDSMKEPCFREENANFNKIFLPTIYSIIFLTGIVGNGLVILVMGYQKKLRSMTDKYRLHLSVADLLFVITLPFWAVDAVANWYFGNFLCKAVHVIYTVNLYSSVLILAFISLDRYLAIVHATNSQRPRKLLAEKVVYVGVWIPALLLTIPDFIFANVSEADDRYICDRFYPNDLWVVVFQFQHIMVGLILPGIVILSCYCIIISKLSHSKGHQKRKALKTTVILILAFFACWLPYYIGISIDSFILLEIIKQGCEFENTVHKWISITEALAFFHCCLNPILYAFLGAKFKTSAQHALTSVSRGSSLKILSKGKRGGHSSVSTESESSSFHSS

Molecular target: CXCR4 (Homo sapiens, UniProt P61073)
Test: Ca2+-assay method 2 (Flexstation, SDF-1 induced calcium mobilization)
Type: cell-based
Design: expressed in transfected cells; host or cells: mouse pre-B cell line 300-19
Details: read-out: IC50 (nM) Ca^2+ assay; method 2 (Ex. 54-160), mouse pre-B cell line 300-19 with human CXCR4, 10 nM SDF-1
Method: 2.2. Ca^2+-Assay: CXCR4-Antagonizing Activity of the Peptides.
The cells were batch loaded with the Calcium 3 Assay kit (Molecular Devices) in assay buffer (Hanks Balanced salt solution, HBSS, 20 mM HEPES, pH 7.4, 0.1% BSA) for 1 h at room temperature and then 200,000 labeled cells were dispensed into black 96 well assays plates (Costar No. 3603). A 20-fold concentrated solution of peptide in assay buffer was added to the cells and the whole plate was centrifuged to settle the cells to the bottom of the wells. Calcium mobilization induced by 10 nM stromal-derived factor-1 (SDF-1) was measured in the Flexstation 384 (excitation, 485 nM; emission, 525 nM) for 90 seconds. A maximal change in fluorescence response above baseline was used to calculate antagonist activity. The data for dose response curves (antagonist concentration versus % maximum response) were fitted to a four parameter logistic equation using SoftmaxPro 4.6 (Molecular Devices), from which IC50% values were calculated.

## N=C(N)NCCC[C@@H]1NC(=O)[C@@H]2CSSC[C@H](NC(=O)[C@H](Cc3ccc(O)cc3)NC(=O)[C@H](CCCNC(=N)N)NC(=O)[C@@H]3CCCCN3C(=O)[C@H]3CCCN3C(=O)CNC1=O)C(=O)N[C@@H](Cc1ccc(O)cc1)C(=O)N[C@@H](CCC(N)=O)C(=O)N[C@@H](CCCCN)C(=O)N1CCC[C@@H]1C(=O)N1CCC[C@H]1C(=O)N[C@@H](Cc1ccc(O)cc1)C(=O)N[C@@H](CCCNC(=N)N)C(=O)N[C@@H](CCCNC(N)=O)C(=O)N2 [Ex. 150] (cyclo([Pip]RYCYQK[dP]PYR[Cit]CRG[dP]); disulfide 4-13)
  IC50: 1.4 nM
